From the supplement of paper PMC11732987, “Enantioselective OTUD7B fragment discovery through chemoproteomics screening and high-throughput optimisation” (Communications Chemistry, 2025)
The list shows a part of the results. The data scatter; read single values as rough.

The chains behind the UniProt entries cited, without tags or fusion partners. Where a name states a change or a piece, a line headed by the entry shows the natural chain unless it says otherwise. Residues count along the entry.
UniProt Q86XL3: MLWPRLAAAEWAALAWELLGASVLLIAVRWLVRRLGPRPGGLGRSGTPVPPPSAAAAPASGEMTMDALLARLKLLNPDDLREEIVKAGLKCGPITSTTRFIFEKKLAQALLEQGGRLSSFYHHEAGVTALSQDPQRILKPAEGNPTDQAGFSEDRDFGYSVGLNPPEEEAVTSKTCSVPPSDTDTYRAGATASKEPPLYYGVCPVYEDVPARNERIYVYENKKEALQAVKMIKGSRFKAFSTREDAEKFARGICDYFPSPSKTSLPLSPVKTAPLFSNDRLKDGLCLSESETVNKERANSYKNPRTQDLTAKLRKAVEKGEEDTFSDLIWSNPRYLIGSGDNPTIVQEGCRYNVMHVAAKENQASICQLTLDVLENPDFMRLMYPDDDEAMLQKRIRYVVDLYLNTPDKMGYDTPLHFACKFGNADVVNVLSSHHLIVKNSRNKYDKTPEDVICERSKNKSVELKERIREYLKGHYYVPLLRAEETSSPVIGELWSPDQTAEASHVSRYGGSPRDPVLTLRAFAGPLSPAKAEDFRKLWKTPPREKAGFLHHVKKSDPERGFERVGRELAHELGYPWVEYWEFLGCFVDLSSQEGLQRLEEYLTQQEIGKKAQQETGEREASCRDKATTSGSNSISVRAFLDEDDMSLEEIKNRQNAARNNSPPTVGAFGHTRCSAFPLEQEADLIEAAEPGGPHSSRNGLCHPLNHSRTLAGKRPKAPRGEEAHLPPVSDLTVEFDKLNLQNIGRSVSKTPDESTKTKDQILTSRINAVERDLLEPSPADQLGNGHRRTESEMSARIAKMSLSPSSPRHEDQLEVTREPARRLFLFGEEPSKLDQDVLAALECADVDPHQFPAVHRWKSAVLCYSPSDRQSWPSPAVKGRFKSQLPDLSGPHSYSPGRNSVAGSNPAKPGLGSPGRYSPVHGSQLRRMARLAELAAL
UniProt Q8N3C0: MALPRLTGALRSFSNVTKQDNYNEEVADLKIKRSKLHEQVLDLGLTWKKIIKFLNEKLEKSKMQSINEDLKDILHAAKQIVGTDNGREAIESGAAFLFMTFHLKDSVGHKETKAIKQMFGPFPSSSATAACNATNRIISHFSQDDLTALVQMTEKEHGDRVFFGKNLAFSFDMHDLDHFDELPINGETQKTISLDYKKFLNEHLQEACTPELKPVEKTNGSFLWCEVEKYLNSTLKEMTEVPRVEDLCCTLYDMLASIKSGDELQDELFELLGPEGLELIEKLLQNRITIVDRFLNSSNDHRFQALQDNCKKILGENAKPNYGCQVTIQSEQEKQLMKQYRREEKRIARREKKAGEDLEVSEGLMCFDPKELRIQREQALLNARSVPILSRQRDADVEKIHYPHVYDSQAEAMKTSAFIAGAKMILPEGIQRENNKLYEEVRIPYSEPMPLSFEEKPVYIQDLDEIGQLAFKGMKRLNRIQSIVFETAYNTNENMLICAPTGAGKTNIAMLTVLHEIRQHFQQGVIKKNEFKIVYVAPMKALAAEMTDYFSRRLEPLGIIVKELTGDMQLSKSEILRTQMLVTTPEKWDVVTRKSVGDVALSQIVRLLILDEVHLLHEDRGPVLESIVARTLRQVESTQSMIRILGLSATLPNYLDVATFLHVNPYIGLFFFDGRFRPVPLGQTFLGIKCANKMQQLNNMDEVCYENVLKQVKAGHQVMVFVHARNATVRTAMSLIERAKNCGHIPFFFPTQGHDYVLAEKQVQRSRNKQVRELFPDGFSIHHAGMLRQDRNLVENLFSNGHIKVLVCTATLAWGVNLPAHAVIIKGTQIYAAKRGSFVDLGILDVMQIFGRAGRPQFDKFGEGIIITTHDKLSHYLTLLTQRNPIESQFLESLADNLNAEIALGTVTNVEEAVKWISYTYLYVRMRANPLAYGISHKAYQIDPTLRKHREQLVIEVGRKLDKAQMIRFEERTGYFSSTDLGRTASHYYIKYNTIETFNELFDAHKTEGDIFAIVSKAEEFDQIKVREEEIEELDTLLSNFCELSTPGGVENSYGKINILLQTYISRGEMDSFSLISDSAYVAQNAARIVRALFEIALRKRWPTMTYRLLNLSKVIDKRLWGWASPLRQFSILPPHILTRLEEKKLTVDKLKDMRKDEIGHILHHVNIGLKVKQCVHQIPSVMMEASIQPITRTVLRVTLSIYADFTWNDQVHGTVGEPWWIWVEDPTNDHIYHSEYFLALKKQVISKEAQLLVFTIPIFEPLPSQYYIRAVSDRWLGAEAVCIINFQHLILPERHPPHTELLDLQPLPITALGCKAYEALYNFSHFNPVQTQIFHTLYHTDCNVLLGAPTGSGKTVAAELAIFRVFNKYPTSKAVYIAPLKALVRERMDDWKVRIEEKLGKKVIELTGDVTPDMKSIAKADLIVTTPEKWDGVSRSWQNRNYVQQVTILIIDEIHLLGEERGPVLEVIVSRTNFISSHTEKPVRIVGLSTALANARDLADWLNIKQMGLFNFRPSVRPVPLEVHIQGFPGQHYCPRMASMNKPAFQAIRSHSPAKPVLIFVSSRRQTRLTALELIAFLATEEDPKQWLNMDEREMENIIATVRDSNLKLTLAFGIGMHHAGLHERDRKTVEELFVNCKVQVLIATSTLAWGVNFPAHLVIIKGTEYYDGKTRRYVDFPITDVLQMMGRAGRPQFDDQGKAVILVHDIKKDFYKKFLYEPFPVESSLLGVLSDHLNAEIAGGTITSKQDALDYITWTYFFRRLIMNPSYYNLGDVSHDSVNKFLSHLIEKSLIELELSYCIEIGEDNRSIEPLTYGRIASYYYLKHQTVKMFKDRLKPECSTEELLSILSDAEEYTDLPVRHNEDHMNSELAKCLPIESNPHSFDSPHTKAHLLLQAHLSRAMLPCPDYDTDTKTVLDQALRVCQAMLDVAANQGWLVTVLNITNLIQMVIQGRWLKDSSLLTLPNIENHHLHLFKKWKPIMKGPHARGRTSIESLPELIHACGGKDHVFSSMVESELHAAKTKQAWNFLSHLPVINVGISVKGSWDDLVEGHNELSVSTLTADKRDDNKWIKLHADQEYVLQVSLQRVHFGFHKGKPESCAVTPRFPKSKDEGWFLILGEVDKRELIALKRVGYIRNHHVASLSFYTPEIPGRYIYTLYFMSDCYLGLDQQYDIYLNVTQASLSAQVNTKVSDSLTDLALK
UniProt O75179: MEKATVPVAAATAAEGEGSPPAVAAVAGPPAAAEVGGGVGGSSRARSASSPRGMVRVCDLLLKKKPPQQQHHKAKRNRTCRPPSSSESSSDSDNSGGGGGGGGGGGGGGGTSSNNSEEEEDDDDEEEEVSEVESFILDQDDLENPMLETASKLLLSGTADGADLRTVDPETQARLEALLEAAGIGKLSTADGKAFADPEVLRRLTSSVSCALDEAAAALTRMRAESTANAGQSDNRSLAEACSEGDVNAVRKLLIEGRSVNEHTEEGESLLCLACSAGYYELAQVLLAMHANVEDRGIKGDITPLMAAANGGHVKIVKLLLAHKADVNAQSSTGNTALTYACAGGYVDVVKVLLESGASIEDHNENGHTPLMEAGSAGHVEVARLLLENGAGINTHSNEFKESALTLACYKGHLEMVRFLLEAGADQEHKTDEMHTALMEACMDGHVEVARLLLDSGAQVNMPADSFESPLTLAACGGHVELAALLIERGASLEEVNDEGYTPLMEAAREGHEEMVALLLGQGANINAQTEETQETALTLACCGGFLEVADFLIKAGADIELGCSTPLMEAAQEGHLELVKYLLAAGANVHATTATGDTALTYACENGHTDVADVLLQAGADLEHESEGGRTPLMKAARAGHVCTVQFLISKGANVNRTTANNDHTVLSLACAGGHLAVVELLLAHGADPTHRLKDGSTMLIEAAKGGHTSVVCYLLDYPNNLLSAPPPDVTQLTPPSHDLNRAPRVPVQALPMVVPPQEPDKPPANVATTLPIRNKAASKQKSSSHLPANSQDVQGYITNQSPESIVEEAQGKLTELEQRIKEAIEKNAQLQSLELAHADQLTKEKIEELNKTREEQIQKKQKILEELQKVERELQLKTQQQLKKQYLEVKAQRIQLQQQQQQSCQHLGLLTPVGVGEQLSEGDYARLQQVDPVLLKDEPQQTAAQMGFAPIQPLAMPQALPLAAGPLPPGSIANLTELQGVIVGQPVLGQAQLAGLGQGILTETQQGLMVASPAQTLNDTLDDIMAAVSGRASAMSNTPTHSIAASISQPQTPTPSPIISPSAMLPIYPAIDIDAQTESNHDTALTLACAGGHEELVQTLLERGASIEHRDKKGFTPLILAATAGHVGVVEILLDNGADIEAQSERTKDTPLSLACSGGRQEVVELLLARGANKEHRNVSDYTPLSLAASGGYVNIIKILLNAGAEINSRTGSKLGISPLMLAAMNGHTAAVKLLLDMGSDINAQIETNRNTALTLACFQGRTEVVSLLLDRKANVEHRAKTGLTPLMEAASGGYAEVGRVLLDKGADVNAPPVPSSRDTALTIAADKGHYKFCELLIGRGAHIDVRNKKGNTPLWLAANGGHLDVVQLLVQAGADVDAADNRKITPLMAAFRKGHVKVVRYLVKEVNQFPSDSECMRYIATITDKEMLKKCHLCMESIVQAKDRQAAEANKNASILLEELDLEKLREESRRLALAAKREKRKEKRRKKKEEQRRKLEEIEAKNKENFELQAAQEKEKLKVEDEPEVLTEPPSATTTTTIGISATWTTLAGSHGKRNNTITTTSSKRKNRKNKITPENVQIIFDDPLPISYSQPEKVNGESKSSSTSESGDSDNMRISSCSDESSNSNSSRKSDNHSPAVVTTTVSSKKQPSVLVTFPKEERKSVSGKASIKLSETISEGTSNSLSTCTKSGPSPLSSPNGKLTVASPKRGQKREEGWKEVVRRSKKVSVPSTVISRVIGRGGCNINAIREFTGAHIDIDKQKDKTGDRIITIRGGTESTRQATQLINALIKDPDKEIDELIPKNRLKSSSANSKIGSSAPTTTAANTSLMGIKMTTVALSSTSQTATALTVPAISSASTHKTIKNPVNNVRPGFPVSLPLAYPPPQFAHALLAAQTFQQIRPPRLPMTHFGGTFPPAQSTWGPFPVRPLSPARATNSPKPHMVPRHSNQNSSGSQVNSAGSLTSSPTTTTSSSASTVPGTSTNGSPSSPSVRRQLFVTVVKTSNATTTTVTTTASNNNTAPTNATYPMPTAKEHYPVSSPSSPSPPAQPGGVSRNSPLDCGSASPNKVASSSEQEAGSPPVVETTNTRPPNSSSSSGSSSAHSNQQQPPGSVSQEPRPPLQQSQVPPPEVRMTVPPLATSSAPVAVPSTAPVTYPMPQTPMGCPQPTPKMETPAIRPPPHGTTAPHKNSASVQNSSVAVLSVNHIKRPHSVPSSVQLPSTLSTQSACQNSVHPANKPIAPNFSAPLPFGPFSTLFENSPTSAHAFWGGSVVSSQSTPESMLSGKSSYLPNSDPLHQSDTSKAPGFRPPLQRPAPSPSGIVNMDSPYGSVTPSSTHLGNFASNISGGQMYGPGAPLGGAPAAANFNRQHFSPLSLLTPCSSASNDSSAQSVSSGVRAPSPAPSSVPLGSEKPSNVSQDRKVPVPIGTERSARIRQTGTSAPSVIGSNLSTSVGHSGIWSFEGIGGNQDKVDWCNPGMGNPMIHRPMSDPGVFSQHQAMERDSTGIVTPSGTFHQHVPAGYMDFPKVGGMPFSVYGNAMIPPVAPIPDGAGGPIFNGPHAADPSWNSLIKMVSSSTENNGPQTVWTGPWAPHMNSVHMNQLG
UniProt Q8IZ07, 527-549: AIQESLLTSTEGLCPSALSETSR
UniProt Q92870: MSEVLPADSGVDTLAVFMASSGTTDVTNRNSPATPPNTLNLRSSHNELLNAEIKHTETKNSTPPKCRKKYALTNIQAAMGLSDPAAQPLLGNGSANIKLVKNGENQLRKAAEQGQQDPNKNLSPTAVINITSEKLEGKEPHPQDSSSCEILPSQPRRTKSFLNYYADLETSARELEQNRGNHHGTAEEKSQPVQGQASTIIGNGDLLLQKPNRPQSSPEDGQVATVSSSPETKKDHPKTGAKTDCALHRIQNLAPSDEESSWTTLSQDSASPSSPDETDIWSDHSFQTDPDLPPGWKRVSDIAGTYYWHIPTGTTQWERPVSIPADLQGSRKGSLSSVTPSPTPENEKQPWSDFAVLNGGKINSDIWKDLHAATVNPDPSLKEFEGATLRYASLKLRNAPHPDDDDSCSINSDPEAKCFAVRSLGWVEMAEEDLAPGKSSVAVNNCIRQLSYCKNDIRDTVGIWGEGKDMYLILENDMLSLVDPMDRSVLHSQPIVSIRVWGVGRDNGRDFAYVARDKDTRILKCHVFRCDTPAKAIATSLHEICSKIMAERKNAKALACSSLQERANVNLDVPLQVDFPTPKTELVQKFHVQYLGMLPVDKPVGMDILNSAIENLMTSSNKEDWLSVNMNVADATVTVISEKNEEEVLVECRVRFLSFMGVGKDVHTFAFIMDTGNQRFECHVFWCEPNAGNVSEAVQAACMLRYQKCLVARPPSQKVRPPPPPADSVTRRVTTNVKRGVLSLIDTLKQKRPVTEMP

The targets below were run with ClCC(=O)N[C@H]1CCCc2ccccc12 (assay: log2 mean competition ratio of IA-DTB cysteine labelling (DMSO/compound) (log2 ratio); higher = stronger cysteine engagement by compound). Conditions: 50 µM; treatment time: 4 h; cell line lysate: HEK293T.
Method: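 IA-DTB competitive cysteine chemoproteomics in HEK293T RIPA lysate. Lysates were treated with compound 29 or 30 at 50 or 200 µM for 4 h, then IA-DTB (500 µM, 1 h), trypsin-digested, NeutrAvidin-enriched and analysed by diaPASEF. Competition ratio = intensity DMSO / intensity compound (n=4 treated, n=64 DMSO); binding: mean log2 CR ≥ 1 and p ≤ 0.05 plus QC filters. Target is the cysteine site.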
ANKLE2 C454 (UniProt Q86XL3) was tested, and the “log2 mean competition ratio” value was -0.127.
For ASCC3 C704 (UniProt Q8N3C0), the “log2 mean competition ratio” value was 0.139.
For AP3B1 C893 (UniProt O00203), the “log2 mean competition ratio” value was -0.315.
ARHGAP19 C359 (UniProt Q14CB8) was tested, and the “log2 mean competition ratio” value was 0.0282.
In the case of AP2A2 C267 (UniProt O94973), the “log2 mean competition ratio” value is reported as -0.168.
In the case of APBA2 C483 (UniProt Q99767), the “log2 mean competition ratio” value is reported as -0.362.
In the case of ANKRD17 C242 (UniProt O75179), the “log2 mean competition ratio” value is reported as 0.139.
In the case of AP1B1 C921 (UniProt Q10567), the “log2 mean competition ratio” value is reported as -0.0646.
ARHGAP42 C24 was tested, and the “log2 mean competition ratio” value was -0.626.
In the case of ARHGEF26 C533, the “log2 mean competition ratio” value is reported as 0.0672.
ARPIN C183 (UniProt Q7Z6K5) was tested, and the “log2 mean competition ratio” value was -0.0467.
For ANKRD13A C540 (UniProt Q8IZ07), the “log2 mean competition ratio” value was 0.41.
With ANKRD17 C1746 (UniProt O75179) the “log2 mean competition ratio” value was 0.451.
For APBB2 C560 (UniProt Q92870), the “log2 mean competition ratio” value was 0.272.
In the case of ARMC8 C661, the “log2 mean competition ratio” value is reported as -0.283.
With ARL6IP4 C59 (UniProt Q66PJ3) the “log2 mean competition ratio” value was 0.0737.
AP4M1 C235 (UniProt O00189) was tested, and the “log2 mean competition ratio” value was -0.623.
In the case of ARID1A C1874 (UniProt O14497), the “log2 mean competition ratio” value is reported as 0.261.
With ANKRD54 C265 (UniProt Q6NXT1) the “log2 mean competition ratio” value was -0.00632.
AP2A1 C171 (UniProt O95782) was tested, and the “log2 mean competition ratio” value was 0.692.

Same assay, conditions: 200 µM; treatment time: 4 h; cell line lysate: HEK293T
ANKLE2 C454 (UniProt Q86XL3) was tested, and the “log2 mean competition ratio” value was 0.195.
In the case of ASCC3 C704 (UniProt Q8N3C0), the “log2 mean competition ratio” value is reported as -0.155.
In the case of AP3B1 C893 (UniProt O00203), the “log2 mean competition ratio” value is reported as 0.207.
ARHGAP19 C359 (UniProt Q14CB8) was tested, and the “log2 mean competition ratio” value was -0.507.
AP2A2 C267 (UniProt O94973) was tested, and the “log2 mean competition ratio” value was -0.189.
For APBA2 C483 (UniProt Q99767), the “log2 mean competition ratio” value was -0.448.
ANKRD17 C242 (UniProt O75179) was tested, and the “log2 mean competition ratio” value was 0.0074.
With AP1B1 C921 (UniProt Q10567) the “log2 mean competition ratio” value was -0.0858.
With ARHGAP42 C24 the “log2 mean competition ratio” value was -0.214.
For ARHGEF26 C533, the “log2 mean competition ratio” value was 0.0391.
With ARPIN C183 (UniProt Q7Z6K5) the “log2 mean competition ratio” value was 0.221.
For ANKRD13A C540 (UniProt Q8IZ07), the “log2 mean competition ratio” value was -0.437.
In the case of ANKRD17 C1746 (UniProt O75179), the “log2 mean competition ratio” value is reported as -0.0919.
In the case of APBB2 C560 (UniProt Q92870), the “log2 mean competition ratio” value is reported as 0.214.
ARMC8 C661 was tested, and the “log2 mean competition ratio” value was 0.399.
In the case of ARL6IP4 C59 (UniProt Q66PJ3), the “log2 mean competition ratio” value is reported as 0.133.
With AP4M1 C235 (UniProt O00189) the “log2 mean competition ratio” value was -0.0887.
With ARID1A C1874 (UniProt O14497) the “log2 mean competition ratio” value was -0.537.
In the case of ANKRD54 C265 (UniProt Q6NXT1), the “log2 mean competition ratio” value is reported as 0.388.
For AP2A1 C171 (UniProt O95782), the “log2 mean competition ratio” value was 0.349.
